Measurements from US4217271A, “Basic azo dyestuffs containing a n-picolinium alkylene amino phenyl group” (Imperial Chemical Industries Limited, priority 1977, dated 1980).

Test: Dyeing of Orlon: shade and fastness
Conditions: not given

SMILES	shade on Orlon
CCN(CC[n+]1ccc(C)cc1)c1ccc(N=Nc2ccc([N+](=O)[O-])cc2Cl)cc1 [Example 1, 4-nitro-2-chloroaniline N-2-(N'-ethylanilino)-ethyl-4-methylpyridinium chloride]	yellowish-red

Test: Shade on Polyacrylonitrile
Conditions: chloride anion

SMILES	Shade on Polyacrylonitrile
CCN(CC[n+]1ccc(C)cc1)c1ccc(N=Nc2ccc([N+](=O)[O-])cc2C#N)cc1 [Example 2]	Rubine
CCN(CC[n+]1ccc(C)cc1)c1ccc(N=Nc2ccc([N+](=O)[O-])cc2C#N)c(C)c1 [Example 3]	Bordeaux
CCN(CC[n+]1ccc(C)cc1)c1ccc(N=Nc2cc(Cl)ccc2C#N)cc1 [Example 4]	Orange
CCN(CC[n+]1ccc(C)cc1)c1ccc(N=Nc2snc3ccc([N+](=O)[O-])cc23)c(C)c1 [Example 5]	Reddish-blue
CCN(CC[n+]1ccc(C)cc1)c1ccc(N=Nc2ncc([N+](=O)[O-])s2)cc1 [Example 6]	Violet
CCN(CC[n+]1ccc(C)cc1)c1ccc(N=Nc2ncc([N+](=O)[O-])s2)c(C)c1 [Example 7]	Reddish-blue
CCN(CC[n+]1ccc(C)cc1)c1ccc(N=Nc2cc(Cl)c(S(=O)(=O)N(C)C)cc2Cl)cc1 [Example 8]	Orange
CCN(CC[n+]1ccc(C)cc1)c1ccc(N=Nc2c(Cl)cc(S(=O)(=O)N(C)C)cc2Cl)cc1 [Example 9]	Reddish-yellow
CCN(CC[n+]1ccc(C)cc1)c1ccc(N=Nc2nc(-c3ccccc3)ns2)cc1 [Example 10]	Red
CCN(CC[n+]1ccc(C)cc1)c1ccc(N=Nc2nc(-c3ccccc3)ns2)c(C)c1 [Example 11]	Red
CCN(CC[n+]1ccc(C)cc1)c1ccc(N=Nc2c(Br)cc([N+](=O)[O-])cc2[N+](=O)[O-])cc1 [Example 12]	Violet
CCN(CC[n+]1cccc(C)c1)c1ccc(N=Nc2ccc([N+](=O)[O-])cc2Cl)cc1 [Example 13]	Red
